These are yes or no findings as the source states them, for the method shown. In cells and extracts the contact can be indirect. For part of these data: A result given as binding can be weak or reduced; the word gives no strength. Tags and fused reporters may be left off the sequences shown. Each block holds one molecule with its values, some of them ahead of it.
Tests used:
[1] = molecular target: T1, Myc-tagged ILDR1 cytoplasmic fragment (mouse) (mouse) (UniProt Q8CBR1); assay: co-IP; HEK293T co-transfected; lysis in 150 mM NaCl, 50 mM Tris pH 7.5, 1% Triton X-100; immobilised anti-Myc antibody at 4 °C overnight; washed three times with 500 mM lysis buffer; western blot with anti-GFP or anti-Myc
T1 sequence: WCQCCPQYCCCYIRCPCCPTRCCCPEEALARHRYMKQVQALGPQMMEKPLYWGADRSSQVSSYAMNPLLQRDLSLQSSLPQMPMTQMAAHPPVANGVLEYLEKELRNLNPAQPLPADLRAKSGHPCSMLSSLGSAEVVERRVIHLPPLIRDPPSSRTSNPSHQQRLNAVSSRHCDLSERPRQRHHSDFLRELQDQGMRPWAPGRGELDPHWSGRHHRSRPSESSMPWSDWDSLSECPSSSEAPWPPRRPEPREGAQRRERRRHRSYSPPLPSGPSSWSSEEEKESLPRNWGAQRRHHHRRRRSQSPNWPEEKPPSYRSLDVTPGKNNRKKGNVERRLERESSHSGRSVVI

[2] = molecular target: ILDR1α’ cytoplasmic domain (mouse) (mouse); assay: as above

binding [1]: no binding
Molecule: EGFP-tagged SRSF1 RRM domain (mouse) (domain or fragment)

binding [1]: binds
Molecule: EGFP-tagged SRSF1 RS domain (mouse) (domain or fragment)

binding [1]: binds
Molecule: EGFP-tagged TRA2A RS domain (mouse) (domain or fragment)

binding [1]: binds
Molecule: EGFP-tagged TRA2B RS domain (mouse) (domain or fragment)

binding [2]: no binding
B1: EGFP-tagged mouse TRA2B (protein, UniProt P62996 1-288)
chain: MSDSGEQNYGERESRSASRSGSAHGSGKSARHTPARSRSKEDSRRSRSKSRSRSESRSRSRRSSRRHYTRSRSRSRSHRRSRSRSYSRDYRRRHSHSHSPMSTRRRHVGNRANPDPNCCLGVFGLSLYTTERDLREVFSKYGPIADVSIVYDQQSRRSRGFAFVYFENVDDAKEAKERANGMELDGRRIRVDFSITKRPHTPTPGIYMGRPTYGSSRRRDYYDRGYDRGYDDRDYYSRSYRGGGGGGGGWRAAQDRDQIYRRRSPSPYYSRGGYRSRSRSRSYSPRRY

binding [2]: no binding
B2: EGFP-tagged mouse TRA2A (protein, UniProt Q6PFR5 1-281)
chain: MSDVEENNFEGRESRSQSKSPTGTPARVKSESRSGSRSPSRVSKHSESHSRSRSKSRSRSRRHSHRRYTRSRSHSHRRRSRSRSYTPEYRRRRSRSHSPMSNRRRHTGSRANPDPNTCLGVFGLSLYTTERDLREVFSRYGPLSGVNVVYDQRTGRSRGFAFVYFERIDDSKEAMERANGMELDGRRIRVDYSITKRAHTPTPGIYMGRPTHSGGGGGGGGGGGGGGGGGGGRRRDSYYDRGYDRGYDRYEDYDYRRRSPSPYYSRYRSRSRSRSYSPRRY

— paper PMC5547134
